Results are given in words; binding and its absence hold for the method and conditions named. Some results given as binding are weak or reduced against the parent protein; the word gives no strength.

The chains behind the UniProt entries cited, without tags or fusion partners. Where a name states a change or a piece, a line headed by the entry shows the natural chain unless it says otherwise.
UniProt P25942: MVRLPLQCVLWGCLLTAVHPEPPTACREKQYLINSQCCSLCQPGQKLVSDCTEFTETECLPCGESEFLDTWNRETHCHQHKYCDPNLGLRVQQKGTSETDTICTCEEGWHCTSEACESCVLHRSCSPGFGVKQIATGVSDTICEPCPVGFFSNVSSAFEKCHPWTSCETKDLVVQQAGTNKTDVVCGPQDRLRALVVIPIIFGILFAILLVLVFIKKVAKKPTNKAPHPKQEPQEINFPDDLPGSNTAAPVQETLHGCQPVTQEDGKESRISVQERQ

The target in the assay is T1, CD40-Fc recombinant protein (human, UniProt P25942 21-193).
T1 construct: also called CD40-Fc protein; CD40-Fc antigen; not shown: Fc part; detected with anti-human IgG Fc antibody
Put plainly: FACS staining, CAR-T cells of donor ND020 co-expressing LACO (FIG. 52).

B1: LACO-A4D11C2828 (protein)
chain: QLQLQESGPGLLKPSETLSLTCTVSGGSISSPGYYGGWIRQPPGKGLEWIGSIYKSGSTYHNPSLKSRVTISVDTSKNQFSLKLSSVTAADTAVYYCTRPVVRYFGWFDPWGQGTLVTVSSASGGGGSGGGGSGGGGSAIQLTQSPSSLSASVGDRVTITCRASQGISSALAWYQQKPGKAPKLLIYDASNLESGVPSRFSGSGSGTDFTLTISSLQPEDFATYYCQQFNSYPTFGQGTKVEIKRTEIEVMYPPPYLDNEKSNGTIIHVKGKHLCPSPLFPGPSKPFWVLVVVGGVLACYSLLVTVAFIIFWVRSKRSRLLHSDYMNMTPRRPGPTRKHYQPYAPPRDFAAYRS
B1: the binding entry is “binds”.

The record behind these values is patent US20260256913A1 (UTC TYHERAPEUTICS SHANGNAI, published 2026).
